According to patent US20130004519A1:
No constants are given. Whether binding was seen depends on the method and setting. For some of these results: Binding seen in cells or lysates may run through a third protein. Some binding calls cover weakened binding; strength is not graded here. For some of these results: Where a sequence is shown, tags or fusion partners need not be part of it.

Chains of the proteins cited; added tags and fusions are not shown. Residues count along the entry.
UniProt P24821, residues 23-2201: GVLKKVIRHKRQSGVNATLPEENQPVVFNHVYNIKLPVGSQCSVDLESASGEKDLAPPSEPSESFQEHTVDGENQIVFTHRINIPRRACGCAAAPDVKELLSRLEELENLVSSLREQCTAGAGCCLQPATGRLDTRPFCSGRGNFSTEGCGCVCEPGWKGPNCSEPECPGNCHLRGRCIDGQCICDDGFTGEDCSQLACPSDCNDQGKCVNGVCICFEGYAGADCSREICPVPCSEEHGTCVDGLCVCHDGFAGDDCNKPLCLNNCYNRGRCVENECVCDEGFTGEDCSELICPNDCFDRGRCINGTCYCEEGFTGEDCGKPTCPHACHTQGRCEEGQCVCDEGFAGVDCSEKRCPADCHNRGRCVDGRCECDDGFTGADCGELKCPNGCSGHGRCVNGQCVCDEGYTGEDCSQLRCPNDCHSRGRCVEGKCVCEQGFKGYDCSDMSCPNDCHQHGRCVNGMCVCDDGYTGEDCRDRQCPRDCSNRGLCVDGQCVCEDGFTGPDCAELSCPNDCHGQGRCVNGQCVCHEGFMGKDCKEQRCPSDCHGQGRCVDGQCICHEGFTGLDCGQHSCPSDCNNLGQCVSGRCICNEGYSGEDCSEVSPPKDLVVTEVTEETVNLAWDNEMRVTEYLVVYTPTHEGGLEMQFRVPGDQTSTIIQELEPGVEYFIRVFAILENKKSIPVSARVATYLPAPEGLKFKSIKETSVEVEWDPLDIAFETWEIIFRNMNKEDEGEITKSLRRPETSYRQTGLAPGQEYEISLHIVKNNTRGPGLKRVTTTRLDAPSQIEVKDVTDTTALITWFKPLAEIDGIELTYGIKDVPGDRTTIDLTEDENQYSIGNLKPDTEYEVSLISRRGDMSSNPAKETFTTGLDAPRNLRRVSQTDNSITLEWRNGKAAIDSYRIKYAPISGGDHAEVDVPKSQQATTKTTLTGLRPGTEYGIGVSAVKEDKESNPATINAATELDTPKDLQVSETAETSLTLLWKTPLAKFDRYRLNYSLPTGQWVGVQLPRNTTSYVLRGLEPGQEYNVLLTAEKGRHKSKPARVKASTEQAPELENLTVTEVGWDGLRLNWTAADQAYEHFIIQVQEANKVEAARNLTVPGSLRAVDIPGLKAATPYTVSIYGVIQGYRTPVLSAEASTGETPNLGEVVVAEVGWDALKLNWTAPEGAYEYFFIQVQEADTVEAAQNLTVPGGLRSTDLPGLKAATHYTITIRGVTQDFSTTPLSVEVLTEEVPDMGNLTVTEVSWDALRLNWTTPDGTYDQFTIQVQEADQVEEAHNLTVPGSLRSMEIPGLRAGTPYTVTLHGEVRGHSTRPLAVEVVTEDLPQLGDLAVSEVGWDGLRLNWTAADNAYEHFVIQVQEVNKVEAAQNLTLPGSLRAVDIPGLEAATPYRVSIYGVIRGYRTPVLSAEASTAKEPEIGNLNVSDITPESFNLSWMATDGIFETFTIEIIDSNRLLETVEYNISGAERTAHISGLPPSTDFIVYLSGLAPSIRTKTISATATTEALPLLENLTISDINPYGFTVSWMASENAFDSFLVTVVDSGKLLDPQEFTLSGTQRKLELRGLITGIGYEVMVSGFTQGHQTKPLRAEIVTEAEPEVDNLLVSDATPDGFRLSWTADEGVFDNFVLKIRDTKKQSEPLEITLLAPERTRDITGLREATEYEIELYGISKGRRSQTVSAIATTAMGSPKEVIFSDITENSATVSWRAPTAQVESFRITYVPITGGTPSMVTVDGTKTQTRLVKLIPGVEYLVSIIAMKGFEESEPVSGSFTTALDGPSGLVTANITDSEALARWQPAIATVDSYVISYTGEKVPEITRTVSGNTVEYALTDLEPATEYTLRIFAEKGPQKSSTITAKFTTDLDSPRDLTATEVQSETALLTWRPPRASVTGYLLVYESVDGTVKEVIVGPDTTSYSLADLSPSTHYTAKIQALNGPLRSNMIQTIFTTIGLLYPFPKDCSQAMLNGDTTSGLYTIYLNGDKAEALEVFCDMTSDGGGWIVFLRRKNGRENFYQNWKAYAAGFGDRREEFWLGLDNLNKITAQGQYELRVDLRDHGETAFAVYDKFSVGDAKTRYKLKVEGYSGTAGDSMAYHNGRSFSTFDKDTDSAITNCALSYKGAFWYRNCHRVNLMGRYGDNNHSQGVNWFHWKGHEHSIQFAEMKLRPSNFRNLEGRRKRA

How the values were obtained:
[1] = target: His-tagged human tenascin-C (human) (UniProt P24821); assay: co-immunoprecipitation from medium of doubly transfected COS cells, western blot
[2] = target: His-tagged human tenascin-C (human) (UniProt P24821); assay: co-immunoprecipitation from COS cell culture medium with the anti-myc antibody (lane labelled SMOC1), western blot probed for tenascin-C
[3] = target: His-tagged human tenascin-C (human) (UniProt P24821); assay: surface plasmon resonance, tenascin-C coupled to a CM5 chip, SMOC1 as soluble analyte
[4] = target: His-tagged human tenascin-C (human) (UniProt P24821); assay: summary of pull-down, co-immunoprecipitation and SPR

binding [1]	binding [2]	binding [3]	binding [4]	Binder
binds	binds			SMOC1-myc-DDK-his (protein, human, not shown: small tags and cut ends) HRTTGPRFLISDRDPQCNLHCSRTQPKPICASDGRSYESMCEYQRAKCRDPTLGVVHRGRCKDAGQSKCRLERAQALEQAKKPQEAVFVPECGEDGSFTQVQCHTYTGYCWCVTPDGKPISGSSVQNKTPVCSGSVTDKPLSQGNSGRKDDGSKPTPTMETQPVFDGDEITAPTLWIKHLVIKDSKLNNTNIRNSEKVYSCDQERQSALEEAQQNPREGIVIPECAPGGLYKPVQCHQSTGYCWCVLVDTGRPLPGTSTRYVMPSCESDARAKTTEADDPFKDRELPGCPEGKKMEFITSLLDALTTDMVQAINSAAPTGGGRFSEPDPSHTLEERVVHWYFSQLDSNSSNDINKREMKPFKRYVKKKAKPKKCARRFTDYCDLNKDKVISLPELKGCLGVSKEGRLVHHHHHH
		binds	binds	human recombinant SMOC1 (soluble analyte in surface plasmon resonance) (protein, UniProt Q9H4F8 27-434, looked up, not shown: small tags and cut ends) HRTTGPRFLISDRDPQCNLHCSRTQPKPICASDGRSYESMCEYQRAKCRDPTLGVVHRGRCKDAGQSKCRLERAQALEQAKKPQEAVFVPECGEDGSFTQVQCHTYTGYCWCVTPDGKPISGSSVQNKTPVCSGSVTDKPLSQGNSGRKDDGSKPTPTMETQPVFDGDEITAPTLWIKHLVIKDSKLNNTNIRNSEKVYSCDQERQSALEEAQQNPREGIVIPECAPGGLYKPVQCHQSTGYCWCVLVDTGRPLPGTSTRYVMPSCESDARAKTTEADDPFKDRELPGCPEGKKMEFITSLLDALTTDMVQAINSAAPTGGGRFSEPDPSHTLEERVVHWYFSQLDSNSSNDINKREMKPFKRYVKKKAKPKKCARRFTDYCDLNKDKVISLPELKGCLGVSKEGRLV
